Results taken from PMC8750874.
Results are given in words; binding and its absence hold for the method and conditions named. Binding seen in cells or lysates may run through a third protein. Some entries that bind do so weakly or less than the wild type. For some assays here: Sequences can lack the tags named with a protein.

T1: Rubicon, human, endogenous (human (endogenous in THP-1 and colon)) (UniProt Q92622)
T1 sequence: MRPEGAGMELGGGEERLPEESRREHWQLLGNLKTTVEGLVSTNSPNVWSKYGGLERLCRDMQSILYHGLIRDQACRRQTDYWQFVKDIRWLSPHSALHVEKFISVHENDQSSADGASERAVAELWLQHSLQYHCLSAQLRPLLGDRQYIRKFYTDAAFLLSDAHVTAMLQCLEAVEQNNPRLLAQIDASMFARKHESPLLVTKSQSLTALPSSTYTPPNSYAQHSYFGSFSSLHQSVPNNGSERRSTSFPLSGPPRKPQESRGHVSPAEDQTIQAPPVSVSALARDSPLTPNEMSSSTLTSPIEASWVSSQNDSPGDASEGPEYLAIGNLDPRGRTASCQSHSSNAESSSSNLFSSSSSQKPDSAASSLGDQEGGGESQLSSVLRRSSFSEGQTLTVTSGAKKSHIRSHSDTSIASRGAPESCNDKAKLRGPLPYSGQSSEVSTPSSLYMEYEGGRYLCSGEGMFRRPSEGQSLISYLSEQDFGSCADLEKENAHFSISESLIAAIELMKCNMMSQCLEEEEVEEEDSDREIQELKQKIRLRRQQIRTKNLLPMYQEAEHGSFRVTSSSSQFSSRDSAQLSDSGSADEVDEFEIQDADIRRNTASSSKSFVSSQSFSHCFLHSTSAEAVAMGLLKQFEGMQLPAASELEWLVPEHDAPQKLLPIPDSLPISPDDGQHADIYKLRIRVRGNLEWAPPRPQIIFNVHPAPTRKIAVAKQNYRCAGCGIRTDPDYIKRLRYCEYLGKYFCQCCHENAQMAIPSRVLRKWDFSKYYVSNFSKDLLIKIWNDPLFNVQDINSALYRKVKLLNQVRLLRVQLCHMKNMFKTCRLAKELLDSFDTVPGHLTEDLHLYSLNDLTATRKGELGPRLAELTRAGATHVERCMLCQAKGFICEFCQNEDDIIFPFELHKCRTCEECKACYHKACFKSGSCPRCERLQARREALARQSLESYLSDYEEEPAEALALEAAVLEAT

T2: Run/cysteine-rich-domain-containing Beclin1-interacting autophagy protein (Rubicon), mouse, endogenous (mouse (endogenous in BMDMs and colon)) (UniProt Q80U62)
T2 sequence: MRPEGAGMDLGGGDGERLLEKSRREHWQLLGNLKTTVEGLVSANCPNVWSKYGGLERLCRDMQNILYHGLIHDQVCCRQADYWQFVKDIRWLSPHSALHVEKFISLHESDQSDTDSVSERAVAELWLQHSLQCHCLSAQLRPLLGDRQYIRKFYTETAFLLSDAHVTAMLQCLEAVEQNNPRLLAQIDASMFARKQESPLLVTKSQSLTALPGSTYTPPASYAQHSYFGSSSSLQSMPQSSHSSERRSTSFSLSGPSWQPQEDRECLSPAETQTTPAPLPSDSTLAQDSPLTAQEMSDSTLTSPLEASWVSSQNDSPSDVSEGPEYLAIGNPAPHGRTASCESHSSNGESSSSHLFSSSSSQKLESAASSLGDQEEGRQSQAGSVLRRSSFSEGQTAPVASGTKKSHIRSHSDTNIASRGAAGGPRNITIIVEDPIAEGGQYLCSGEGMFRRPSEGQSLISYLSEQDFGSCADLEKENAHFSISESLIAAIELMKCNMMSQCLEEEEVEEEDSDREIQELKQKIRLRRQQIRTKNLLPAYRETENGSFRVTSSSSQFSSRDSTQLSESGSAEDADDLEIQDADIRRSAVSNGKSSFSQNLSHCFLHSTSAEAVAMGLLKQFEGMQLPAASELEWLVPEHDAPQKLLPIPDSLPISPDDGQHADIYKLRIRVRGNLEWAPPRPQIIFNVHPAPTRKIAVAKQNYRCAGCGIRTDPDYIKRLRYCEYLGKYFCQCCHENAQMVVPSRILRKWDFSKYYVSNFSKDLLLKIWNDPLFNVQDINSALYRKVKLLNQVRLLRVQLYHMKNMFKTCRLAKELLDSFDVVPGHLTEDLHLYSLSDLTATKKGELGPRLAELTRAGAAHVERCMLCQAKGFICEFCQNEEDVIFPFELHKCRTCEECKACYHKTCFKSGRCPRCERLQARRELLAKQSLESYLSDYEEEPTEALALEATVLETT

T3: full-length mouse Rubicon expressed from adenovirus (Ad-Rubicon) (mouse) (UniProt Q80U62)
T3 sequence: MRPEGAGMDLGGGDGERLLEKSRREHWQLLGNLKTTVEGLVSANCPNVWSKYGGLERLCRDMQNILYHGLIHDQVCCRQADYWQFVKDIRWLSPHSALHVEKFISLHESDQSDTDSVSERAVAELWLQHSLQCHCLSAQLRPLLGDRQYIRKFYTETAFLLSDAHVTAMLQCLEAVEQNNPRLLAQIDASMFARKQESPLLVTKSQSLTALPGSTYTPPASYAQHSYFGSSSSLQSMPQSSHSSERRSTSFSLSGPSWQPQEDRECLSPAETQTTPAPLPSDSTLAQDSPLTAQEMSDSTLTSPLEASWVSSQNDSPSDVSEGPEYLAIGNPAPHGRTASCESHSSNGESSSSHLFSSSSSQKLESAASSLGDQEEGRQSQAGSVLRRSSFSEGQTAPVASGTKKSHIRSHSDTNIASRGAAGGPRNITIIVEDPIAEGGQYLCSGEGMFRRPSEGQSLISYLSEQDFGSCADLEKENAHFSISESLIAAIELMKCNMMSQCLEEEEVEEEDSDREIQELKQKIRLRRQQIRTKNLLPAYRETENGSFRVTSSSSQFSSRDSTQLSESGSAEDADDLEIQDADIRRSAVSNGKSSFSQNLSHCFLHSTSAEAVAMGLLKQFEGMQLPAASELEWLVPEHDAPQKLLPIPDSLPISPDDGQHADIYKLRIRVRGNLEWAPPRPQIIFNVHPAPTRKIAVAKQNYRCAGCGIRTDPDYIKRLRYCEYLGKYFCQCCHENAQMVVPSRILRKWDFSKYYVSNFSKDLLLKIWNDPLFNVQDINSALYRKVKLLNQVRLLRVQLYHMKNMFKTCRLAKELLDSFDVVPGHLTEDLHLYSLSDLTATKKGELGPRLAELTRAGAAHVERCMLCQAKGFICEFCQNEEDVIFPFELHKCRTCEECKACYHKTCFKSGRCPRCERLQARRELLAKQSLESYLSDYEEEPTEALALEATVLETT


Key:
[1] = target: T1, Rubicon, human, endogenous (human (endogenous in THP-1 and colon)); test: co-IP; colon of ulcerative colitis patients, cytoplasmic and mitochondrial fractions; IP with anti-Rubicon, IB with anti-p22phox and anti-Rubicon
[2] = target: T1, Rubicon, human, endogenous (human (endogenous in THP-1 and colon)); test: co-IP; colon of healthy controls (human normal), cytoplasmic and mitochondrial fractions; IP with anti-Rubicon, IB with anti-p22phox and anti-Rubicon
[3] = target: T2, Run/cysteine-rich-domain-containing Beclin1-interacting autophagy protein (Rubicon), mouse, endogenous (mouse (endogenous in BMDMs and colon)); test: co-IP; IP with anti-Rubicon, IB with anti-p22phox; BMDM lysates, cytosolic and mitochondrial fractions, NP-40 buffer; cells transduced with Ad-Vector, Ad-Rubicon or Ad-shRubicon; treated with LPS (100 ng/mL) for indicated times, LPS-primed plus ATP (1 mM, 30 min) or DSS (3%, 18 h), with or without Mito-TIPTP (1, 10, 100 nM)
[4] = target: T3, full-length mouse Rubicon expressed from adenovirus (Ad-Rubicon) (mouse); test: as above
[5] = target: T2, Run/cysteine-rich-domain-containing Beclin1-interacting autophagy protein (Rubicon), mouse, endogenous (mouse (endogenous in BMDMs and colon)); test: co-IP; mouse colon (3% DSS colitis model, Ad-vector or Ad-shRubicon, vehicle or Mito-TIPTP); IP with anti-Rubicon, IB with anti-p22phox and anti-Rubicon

binding [3] | binding [4] | binding [5] | Binder | binding [1] | binding [2]
– | – | – | p22phox (CYBA), human, endogenous (protein, UniProt P13498 1-195) MGQIEWAMWANEQALASGLILITGGIVATAGRFTQWYFGAYSIVAGVFVCLLEYPRGKRKKGSTMERWGQKYMTAVVKLFGPFTRNYYVRAVLHLLLSVPAGFLLATILGTACLAIASGIYLLAAVRGEQWTPIEPKPRERPQIGGTIKQPPSNPPPRPPAEARKKPSEEEAAVAAGGPPGGPQVNPIPVTDEVV | binds | no binding (condition: colon lysates of healthy controls)
binds | binds | binds | p22phox (cytochrome b-245 light chain, CYBA), mouse, endogenous (protein, UniProt Q61462 1-192) MGQIEWAMWANEQALASGLILITGGIVATAGRFTQWYFGAYSIAAGVLICLLEYPRGKRKKGSTMERCGQKYLTSVVKLFGPLTRNYYVRAALHFLLSVPAGFLLATILGTVCLAIASVIYLLAAIRGEQWTPIEPKPKERPQVGGTIKQPPTNPPPRPPAEVRKKPSEGEEEAASAGGPQVNPMPVTDEVV | – | –
